Binding data for three substances are collected here from paper PMC5390007.

Sequences of proteins named here, by UniProt entry; tags and fusion partners are left off. A change or cut given only in a name is not applied to a line headed by its entry.
UniProt P10637: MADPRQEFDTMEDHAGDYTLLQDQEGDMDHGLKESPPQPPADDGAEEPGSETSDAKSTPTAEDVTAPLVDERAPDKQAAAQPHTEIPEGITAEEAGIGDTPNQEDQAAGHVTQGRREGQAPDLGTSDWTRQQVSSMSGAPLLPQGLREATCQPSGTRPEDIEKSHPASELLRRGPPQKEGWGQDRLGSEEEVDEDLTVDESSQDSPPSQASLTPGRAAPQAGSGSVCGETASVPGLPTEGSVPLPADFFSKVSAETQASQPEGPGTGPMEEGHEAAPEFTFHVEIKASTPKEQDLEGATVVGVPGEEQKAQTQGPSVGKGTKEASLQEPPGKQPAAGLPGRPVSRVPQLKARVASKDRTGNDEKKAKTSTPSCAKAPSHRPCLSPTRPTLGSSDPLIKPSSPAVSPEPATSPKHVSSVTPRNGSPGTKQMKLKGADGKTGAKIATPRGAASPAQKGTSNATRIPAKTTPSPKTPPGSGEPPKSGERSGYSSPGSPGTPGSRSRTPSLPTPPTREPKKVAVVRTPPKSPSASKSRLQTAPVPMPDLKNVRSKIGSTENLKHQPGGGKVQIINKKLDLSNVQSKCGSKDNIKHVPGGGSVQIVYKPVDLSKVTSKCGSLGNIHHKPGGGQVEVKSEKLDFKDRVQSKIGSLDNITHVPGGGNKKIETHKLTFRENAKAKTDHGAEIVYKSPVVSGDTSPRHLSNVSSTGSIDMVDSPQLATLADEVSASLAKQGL
UniProt P56399: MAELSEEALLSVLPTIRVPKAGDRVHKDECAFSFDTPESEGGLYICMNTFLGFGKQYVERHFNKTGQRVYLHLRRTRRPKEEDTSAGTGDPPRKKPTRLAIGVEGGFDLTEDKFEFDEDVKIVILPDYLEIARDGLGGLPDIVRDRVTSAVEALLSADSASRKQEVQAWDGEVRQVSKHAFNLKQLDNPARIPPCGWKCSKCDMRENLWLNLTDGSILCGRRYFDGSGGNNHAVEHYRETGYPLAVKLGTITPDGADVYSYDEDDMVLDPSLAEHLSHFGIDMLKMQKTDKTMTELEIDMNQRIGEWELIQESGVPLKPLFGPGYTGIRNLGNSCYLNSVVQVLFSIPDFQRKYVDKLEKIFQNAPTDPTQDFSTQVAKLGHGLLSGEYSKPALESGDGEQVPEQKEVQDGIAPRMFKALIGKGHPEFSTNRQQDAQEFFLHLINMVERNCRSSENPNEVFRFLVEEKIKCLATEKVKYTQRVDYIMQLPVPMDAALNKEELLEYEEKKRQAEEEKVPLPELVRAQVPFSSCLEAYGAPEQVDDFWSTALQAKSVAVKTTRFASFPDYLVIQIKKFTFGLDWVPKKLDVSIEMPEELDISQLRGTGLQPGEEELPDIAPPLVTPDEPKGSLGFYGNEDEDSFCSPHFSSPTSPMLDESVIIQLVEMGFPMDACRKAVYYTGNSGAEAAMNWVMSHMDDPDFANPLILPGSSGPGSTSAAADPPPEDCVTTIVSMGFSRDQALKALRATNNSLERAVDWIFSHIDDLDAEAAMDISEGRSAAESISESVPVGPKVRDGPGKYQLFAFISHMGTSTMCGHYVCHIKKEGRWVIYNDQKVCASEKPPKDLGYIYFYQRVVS
UniProt Q61699: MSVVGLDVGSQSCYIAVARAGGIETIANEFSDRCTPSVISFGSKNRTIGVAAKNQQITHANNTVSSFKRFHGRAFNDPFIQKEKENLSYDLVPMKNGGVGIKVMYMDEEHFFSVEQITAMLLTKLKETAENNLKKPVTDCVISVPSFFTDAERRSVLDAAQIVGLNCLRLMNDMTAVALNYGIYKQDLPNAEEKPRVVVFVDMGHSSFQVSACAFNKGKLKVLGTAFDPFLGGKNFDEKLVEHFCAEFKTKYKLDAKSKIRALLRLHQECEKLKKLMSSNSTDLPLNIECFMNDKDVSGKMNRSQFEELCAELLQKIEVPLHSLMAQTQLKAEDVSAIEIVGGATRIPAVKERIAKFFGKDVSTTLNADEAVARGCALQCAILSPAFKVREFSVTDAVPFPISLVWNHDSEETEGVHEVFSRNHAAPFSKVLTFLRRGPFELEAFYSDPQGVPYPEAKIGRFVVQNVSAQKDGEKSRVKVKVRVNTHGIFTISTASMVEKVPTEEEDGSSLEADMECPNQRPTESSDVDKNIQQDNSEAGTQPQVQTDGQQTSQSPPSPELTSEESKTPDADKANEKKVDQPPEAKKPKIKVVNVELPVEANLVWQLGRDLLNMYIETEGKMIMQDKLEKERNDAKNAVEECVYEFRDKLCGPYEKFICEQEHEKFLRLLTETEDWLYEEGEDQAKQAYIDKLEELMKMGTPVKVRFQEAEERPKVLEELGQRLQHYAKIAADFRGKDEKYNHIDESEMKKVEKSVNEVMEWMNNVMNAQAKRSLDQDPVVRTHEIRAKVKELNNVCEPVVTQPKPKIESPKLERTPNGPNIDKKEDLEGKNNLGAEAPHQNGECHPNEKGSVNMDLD
UniProt P70398: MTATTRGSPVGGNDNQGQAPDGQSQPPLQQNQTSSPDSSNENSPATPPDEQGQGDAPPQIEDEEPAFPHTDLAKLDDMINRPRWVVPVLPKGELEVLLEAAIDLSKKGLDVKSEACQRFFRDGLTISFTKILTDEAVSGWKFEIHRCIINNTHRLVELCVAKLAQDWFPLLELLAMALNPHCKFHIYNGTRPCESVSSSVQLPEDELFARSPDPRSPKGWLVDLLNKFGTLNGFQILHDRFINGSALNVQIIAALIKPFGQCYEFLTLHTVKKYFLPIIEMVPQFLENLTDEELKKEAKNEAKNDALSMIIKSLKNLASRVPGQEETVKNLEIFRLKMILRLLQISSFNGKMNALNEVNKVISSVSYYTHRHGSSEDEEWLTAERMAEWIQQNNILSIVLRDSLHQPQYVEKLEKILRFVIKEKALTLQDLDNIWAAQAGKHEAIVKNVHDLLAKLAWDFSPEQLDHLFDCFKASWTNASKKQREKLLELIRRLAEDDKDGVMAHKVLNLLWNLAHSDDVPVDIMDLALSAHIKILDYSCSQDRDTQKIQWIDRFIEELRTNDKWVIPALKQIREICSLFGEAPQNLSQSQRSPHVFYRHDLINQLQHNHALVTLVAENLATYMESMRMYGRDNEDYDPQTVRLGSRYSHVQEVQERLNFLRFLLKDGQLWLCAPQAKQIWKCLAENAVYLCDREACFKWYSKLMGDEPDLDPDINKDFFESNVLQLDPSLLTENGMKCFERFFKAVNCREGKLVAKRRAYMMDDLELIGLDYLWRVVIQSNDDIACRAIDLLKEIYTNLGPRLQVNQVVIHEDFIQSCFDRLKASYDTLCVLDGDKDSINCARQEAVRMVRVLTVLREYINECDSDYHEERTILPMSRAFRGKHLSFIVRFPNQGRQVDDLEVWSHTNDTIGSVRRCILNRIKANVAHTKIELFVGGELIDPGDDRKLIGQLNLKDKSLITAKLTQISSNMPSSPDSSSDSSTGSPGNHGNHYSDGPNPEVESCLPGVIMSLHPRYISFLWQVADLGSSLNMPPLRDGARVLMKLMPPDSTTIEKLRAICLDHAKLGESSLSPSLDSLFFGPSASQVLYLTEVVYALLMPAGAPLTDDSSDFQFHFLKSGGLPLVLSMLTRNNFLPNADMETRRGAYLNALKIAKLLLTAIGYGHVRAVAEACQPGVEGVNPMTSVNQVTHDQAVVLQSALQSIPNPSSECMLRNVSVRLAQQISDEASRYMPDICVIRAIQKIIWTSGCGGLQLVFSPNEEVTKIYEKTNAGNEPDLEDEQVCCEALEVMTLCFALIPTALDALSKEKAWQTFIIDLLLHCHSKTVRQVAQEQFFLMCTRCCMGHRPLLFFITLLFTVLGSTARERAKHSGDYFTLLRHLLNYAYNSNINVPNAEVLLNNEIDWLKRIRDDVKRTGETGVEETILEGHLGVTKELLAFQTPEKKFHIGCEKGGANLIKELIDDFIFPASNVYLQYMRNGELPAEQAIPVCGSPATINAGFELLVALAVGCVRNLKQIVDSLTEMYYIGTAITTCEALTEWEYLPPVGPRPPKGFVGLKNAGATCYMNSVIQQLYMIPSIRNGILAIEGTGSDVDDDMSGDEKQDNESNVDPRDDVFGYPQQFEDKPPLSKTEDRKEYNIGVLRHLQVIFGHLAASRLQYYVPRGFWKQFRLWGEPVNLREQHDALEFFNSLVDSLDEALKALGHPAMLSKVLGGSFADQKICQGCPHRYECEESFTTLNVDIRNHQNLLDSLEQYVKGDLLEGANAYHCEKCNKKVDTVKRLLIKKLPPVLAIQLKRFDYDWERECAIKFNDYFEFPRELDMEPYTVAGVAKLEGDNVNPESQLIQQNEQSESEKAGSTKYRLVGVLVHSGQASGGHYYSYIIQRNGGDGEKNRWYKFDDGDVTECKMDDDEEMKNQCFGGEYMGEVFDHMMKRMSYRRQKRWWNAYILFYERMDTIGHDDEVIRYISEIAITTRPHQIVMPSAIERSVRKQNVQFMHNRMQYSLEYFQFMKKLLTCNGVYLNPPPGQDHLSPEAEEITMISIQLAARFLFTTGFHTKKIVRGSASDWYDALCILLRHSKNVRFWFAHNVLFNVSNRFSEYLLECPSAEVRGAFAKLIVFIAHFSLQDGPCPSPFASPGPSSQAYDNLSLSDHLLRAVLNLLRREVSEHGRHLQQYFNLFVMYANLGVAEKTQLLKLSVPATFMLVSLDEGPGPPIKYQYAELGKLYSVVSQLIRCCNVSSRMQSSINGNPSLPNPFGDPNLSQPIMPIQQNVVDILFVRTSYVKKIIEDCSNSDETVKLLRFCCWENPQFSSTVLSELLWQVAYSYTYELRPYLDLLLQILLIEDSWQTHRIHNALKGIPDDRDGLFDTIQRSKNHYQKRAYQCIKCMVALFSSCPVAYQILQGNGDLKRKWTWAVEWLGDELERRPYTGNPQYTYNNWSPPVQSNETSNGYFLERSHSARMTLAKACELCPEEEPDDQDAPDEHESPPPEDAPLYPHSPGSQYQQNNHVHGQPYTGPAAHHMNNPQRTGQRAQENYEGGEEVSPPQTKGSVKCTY

Results are given in words; binding and its absence hold for the method and conditions named. Binding seen in cells or lysates may run through a third protein. A yes stands for co-enrichment or nearness to the bait. Other partners may have been found.

The experiment has as its target Tau (endogenous, mouse brain) (mouse (endogenous in mouse brain)) (UniProt P10637). Description: affinity purification with mass spectrometry; differential co-immunoprecipitation of endogenous Tau from total mouse brain homogenates with three polyclonal anti-Tau antibodies and control antibodies cross-linked to Sepharose beads; iTRAQ quantitative mass spectrometry, four IP experiments.
As for “USP5 (from UniProt P56399 1-858) (enzyme)”, the binding entry is given as “binds”.

As for “Hsp110 (Hsp110) (from UniProt Q61699 1-858)”, the binding entry is recorded as “binds”.

In the case of “USP9x (from UniProt P70398 1-2559) (enzyme)”, the binding result is recorded as “binds”.
